Consider one substance from patent publication US11273203B2, “Methods of mitigating toxic effects of vesicants and caustic gas” (dated 2022).

The experiment deals with male Wistar rats exposed to nitrogen mustard (NM). The experiment is described as follows: MRI (T2-weighted) measurement of NM-induced pulmonary edema. The note with it: Day 3; single dose TPOm 0.3 mg/kg 6 hours after NM-exposure; two NM/TPOm groups; NM-treated group 1736 mm3; not statistically significant.

A number of entries come with more than one value. This list holds those alone. An entry can have further records. The records of an entry differ for a reason that is not stated; dose, time, organism, isomer or construct need not be as stated for each record.

For “methoxypolyethyleneglycol20000-propionyl-L-Isoleucyl-L-Glutamyl-Glycyl-L-Prolyl-L-Threonyl-L-Leucyl-L-Arginyl-L-Glutaminyl-L-2-Naphthylalanyl-L-Leucyl-L-Alanyl-L-Alanyl-L-Arginyl-Sarcosyl-Ne-(methoxypolyethyleneglycol20000-propionyl-L-Isoleucyl-L-Glutamyl-Glycyl-L-Prolyl-L-Threonyl-L-Leucyl-L-Arginyl-L-Glutaminyl-L-2-Naphthylalanyl-L-Leucyl-L-Alanyl-L-Alanyl-L-Arginyl-Sarcosyl-)-Lysinamide”, the mean edema volume is 1592 mm3 and 1387 mm3.
